Here are results for 1 molecule from article PMC3667844.

By UniProt entry, the sequences of proteins in these tests, tags left out. Where a name states a change or a piece, a line headed by the entry shows the natural chain unless it says otherwise.
UniProt P61019: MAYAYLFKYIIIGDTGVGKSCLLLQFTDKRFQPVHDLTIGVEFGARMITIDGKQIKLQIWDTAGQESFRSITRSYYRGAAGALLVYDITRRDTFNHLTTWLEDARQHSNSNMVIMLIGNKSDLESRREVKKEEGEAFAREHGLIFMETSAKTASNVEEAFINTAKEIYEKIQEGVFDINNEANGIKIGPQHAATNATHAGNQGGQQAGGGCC
UniProt Q9H082: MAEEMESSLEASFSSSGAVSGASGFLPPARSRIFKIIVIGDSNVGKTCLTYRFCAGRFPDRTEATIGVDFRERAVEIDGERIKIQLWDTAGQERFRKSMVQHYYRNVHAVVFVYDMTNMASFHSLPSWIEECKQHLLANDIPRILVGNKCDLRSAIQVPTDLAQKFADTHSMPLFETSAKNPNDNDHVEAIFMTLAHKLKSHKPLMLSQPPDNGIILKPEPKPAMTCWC
UniProt Q9H0U4: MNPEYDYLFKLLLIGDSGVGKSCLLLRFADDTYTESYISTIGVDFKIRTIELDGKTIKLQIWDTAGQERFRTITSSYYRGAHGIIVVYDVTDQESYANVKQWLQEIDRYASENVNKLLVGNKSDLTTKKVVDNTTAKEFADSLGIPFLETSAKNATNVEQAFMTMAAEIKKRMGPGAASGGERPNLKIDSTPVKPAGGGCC
UniProt P62491: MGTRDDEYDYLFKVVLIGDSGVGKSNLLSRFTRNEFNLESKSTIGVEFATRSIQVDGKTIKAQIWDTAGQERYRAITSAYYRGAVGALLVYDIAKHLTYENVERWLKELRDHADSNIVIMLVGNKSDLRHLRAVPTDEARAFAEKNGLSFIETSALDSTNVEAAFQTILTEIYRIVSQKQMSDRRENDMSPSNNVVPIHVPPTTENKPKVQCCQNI
UniProt P61586: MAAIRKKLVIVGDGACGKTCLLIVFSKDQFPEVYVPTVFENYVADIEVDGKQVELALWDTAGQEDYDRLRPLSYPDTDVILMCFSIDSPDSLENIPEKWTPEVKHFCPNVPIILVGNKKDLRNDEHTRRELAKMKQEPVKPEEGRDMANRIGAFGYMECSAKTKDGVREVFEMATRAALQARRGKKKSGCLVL
UniProt P62820: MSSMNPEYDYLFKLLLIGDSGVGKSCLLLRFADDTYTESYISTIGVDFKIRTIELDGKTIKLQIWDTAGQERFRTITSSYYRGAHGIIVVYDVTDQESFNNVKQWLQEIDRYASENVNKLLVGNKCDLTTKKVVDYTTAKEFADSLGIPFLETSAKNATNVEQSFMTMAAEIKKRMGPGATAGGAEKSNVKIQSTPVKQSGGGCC
UniProt P01123: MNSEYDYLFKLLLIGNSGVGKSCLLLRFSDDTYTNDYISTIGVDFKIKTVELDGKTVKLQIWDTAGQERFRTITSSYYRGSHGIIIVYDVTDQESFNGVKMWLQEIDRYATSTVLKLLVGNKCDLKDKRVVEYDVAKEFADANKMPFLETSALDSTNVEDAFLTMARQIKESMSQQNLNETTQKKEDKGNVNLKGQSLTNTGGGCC

For assay [1], the target named is T1, pAS Rab6A' Q72L (UniProt P20340).
T1 sequence: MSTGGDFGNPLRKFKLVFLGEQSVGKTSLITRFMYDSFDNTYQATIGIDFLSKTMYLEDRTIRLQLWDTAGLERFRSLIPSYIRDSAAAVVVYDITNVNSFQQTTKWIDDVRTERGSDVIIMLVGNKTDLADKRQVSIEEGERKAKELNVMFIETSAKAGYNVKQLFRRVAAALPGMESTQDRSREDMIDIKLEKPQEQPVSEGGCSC
The assay can be described thus: two-hybrid; Y190 co-transformed with prey (pP6 or pACT) and bait (pAS) plasmids; growth on synthetic medium lacking leucine, tryptophan and histidine with 30 mM 3 AT (his3).

Assay [2] deals with pAS Rab2 Q65L (UniProt P61019). Described as above.
The target in assay [3] is pAS Rab6A Q72L (UniProt P20340). Described as above.
Assay [4] deals with pAS Rab33B Q92L (UniProt Q9H082). The description is as above.
Assay [5] has as its target pAS Rab2 wt (UniProt P61019). Described as above.
Assay [6] deals with pAS Rab33B T47N (UniProt Q9H082). Described as above.
The target in assay [7] is pAS Ypt6p wt (yeast) (UniProt Q99260). Described as above.
In a further assay the target is pAS Rab1B Q67L (UniProt Q9H0U4). The assay can be described thus: two-hybrid; Y190 co-transformed with prey (pP6 or pACT) and bait (pAS) plasmids; β-galactosidase reporter activity on replica filters with X-gal (β-gal).
The target in assay [8] is T1, pAS Rab6A' Q72L. The assay is described as above.
The next assay concerns the target pAS Rab33B wt (UniProt Q9H082). The description is as above.
Another assay deals with pAS Rab11A wt (UniProt P62491). The description is as above.
The target in another assay is pAS Rab1B wt (UniProt Q9H0U4). The assay is described as above.
Assay [9] concerns the target pAS Rab2 Q65L (UniProt P61019). The description is as above.
The target of assay [10] is pAS Rab6A Q72L (UniProt P20340). The description is as above.
Assay [11] addresses pAS Rab33B Q92L (UniProt Q9H082). Described as above.
A further assay concerns the target pAS Rab6B Q72L (UniProt Q9NRW1). The description is as above.
For assay [12], the target named is pAS Rab2 wt (UniProt P61019). The description is as above.
The target in another assay is T2, pAS Ypt6p Q69L (yeast) (UniProt Q99260).
T2 sequence: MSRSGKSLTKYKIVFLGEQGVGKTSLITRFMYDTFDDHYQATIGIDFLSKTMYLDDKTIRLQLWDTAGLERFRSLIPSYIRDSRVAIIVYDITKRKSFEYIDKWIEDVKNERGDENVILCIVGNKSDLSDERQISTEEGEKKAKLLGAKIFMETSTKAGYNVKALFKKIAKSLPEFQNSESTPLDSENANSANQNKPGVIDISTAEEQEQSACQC
The description is as above.

The target in another assay is pAS RhoA wt (UniProt P61586). The assay is described as above.
The next assay deals with pAS Rab1A wt (UniProt P62820). The description is as above.
The next assay deals with pAS Ypt1 wt (UniProt P01123). Described as above.
For assay [13], the target named is pAS Rab33B T47N (UniProt Q9H082). The description is as above.
Assay [14] has as its target pAS Ypt6p wt (yeast) (UniProt Q99260). The assay is described as above.

Results are given in words; binding and its absence hold for the method and conditions named. Some binding calls cover weakened binding; strength is not graded here.

B1: pP6 Mint1 (aa 438–769), yeast two-hybrid clone that lacks aa 495–505 (domain or fragment, UniProt Q02410-1)
chain: ASFPTYVEVPGPCDPEDLIDGIIFAANYLGSTQLLSDKTPSKNVRMMQAQEAVSRIKAPEGESQPMTEVDLFISTQRIKVLNADTQETMMDHPLRTISYIADIGNIVVLMARRRMPRSNSQENVEASHPSQDGKRQYKMICHVFESEDAQLIAQSIGQAFSVAYQEFLRANGINPEDLSQKEYSDLLNTQDMYNDDLIHFSKSENCKDVFIEKQKGEILGVVIVESGWGSILPTVIIANMMHGGPAEKSGKLNIGDQIMSINGTSLVGLPLSTCQSIIKGLKNQSRVKLNIVRCPPVTTVLIRRPDLRYQLGFSVQNGIIC
As to B1, the binding result with pAS Rab6A' Q72L [1] is listed as “binds”; with pAS Rab2 Q65L [2], “no binding”; with pAS Rab6A Q72L [3], “binds”; with pAS Rab33B Q92L [4], “no binding”; with pAS Rab2 wt [5] it was “no binding”; in the assay with pAS Rab33B T47N [6], “no binding”. The binding entry with pAS Ypt6p wt (yeast) [7] is given as “no binding”; with pAS Rab1B Q67L, “no binding”; with pAS Rab6A' Q72L [8], “binds”; in the assay with pAS Rab33B wt, “no binding”; with pAS Rab11A wt it was “no binding”; with pAS Rab1B wt, “no binding”. Further, the binding result with pAS Rab2 Q65L [9] is “no binding”; in the assay with pAS Rab6A Q72L [10] it was “binds”; in the assay with pAS Rab33B Q92L [11], “no binding”; with pAS Rab6B Q72L, “binds”; with pAS Rab2 wt [12], “no binding”; in the assay with pAS Ypt6p Q69L (yeast), “no binding”. Moreover, the binding entry in the assay with pAS RhoA wt, with pAS Rab1A wt, with pAS Ypt1 wt, with pAS Rab33B T47N [13] and with pAS Ypt6p wt (yeast) [14] was “no binding” in each case.
